From paper PMC10235067, “Increased renal elimination of endogenous and synthetic pyrimidine nucleosides in concentrative nucleoside transporter 1 deficient mice” (Nature Communications, 2023)
Where “and” joins values, the source holds several entries; their conditions need not be identical. Equal entries are not always repeated. Residues, ends and D or L forms follow the SMILES beside them.

Assays:
CNT1 [1] = test: Untargeted metabolomics of Slc28a1-/- vs Slc28a1+/+ mouse plasma (ad libitum); type: in vivo
CNT1 [2] = test: Untargeted metabolomics of Slc28a1-/- vs Slc28a1+/+ mouse urine (24 h, ad libitum); conditions: for Fold Change / log2(FC): Slc28a1-/- / Slc28a1+/+

| Compound | Fold Change (CNT1 [1]) | log2(FC) (CNT1 [1]) | Fold Change (CNT1 [2]) | log2(FC) (CNT1 [2]) | change of level in Slc28a1-/- mouse urine (untargeted metabolomics) (CNT1 [2]; Slc28a1-/- vs Slc28a1+/+) |
| --- | --- | --- | --- | --- | --- |
| 2,5-Diamino-4,5-diketopyrimidine | 1.2 and 1.2457 | 0.3 and 0.317 |  |  |  |
| CC(O)CCC(O)c1ccoc1 (stereo not shown) [1,4-Ipomeadiol] | 3.7 and 3.7245 | 1.9 and 1.8971 |  |  |  |
| C1=CNc2ccccc2C=C1 [1-Benzazepine] | 1.2 and 1.1613 | 0.2 and 0.2157 |  |  |  |
| CCc1occ(O)c1O [2-Ethyl-3,4-dihydroxyfuran] | 1.3 and 1.3166 | 0.4 and 0.3969 |  |  |  |
| Cc1cc2ccccc2[nH]1 [2-Methylindole] | 1.2 and 1.1633 | 0.2 and 0.2183 |  |  |  |
| O=C(O)CCCCCCCCC(O)CC(=O)O (stereo not shown) [3-Hydroxydodecanedioic acid] | 1.5 and 1.4754 | 0.6 and 0.5611 |  |  |  |
| O=C(O)CCCCCCCCCCC(O)CC(=O)O (stereo not shown) [3-Hydroxytetradecanedioic acid] | 3.7 and 3.6668 | 1.9 and 1.8745 |  |  |  |
| CC(O)C(C)SC(C)C(C)S (stereo not shown) [3-[(2-Mercapto-1-methylpropyl)thio]-2-butanol] | 0.6 and 0.647 | -0.6 and -0.6281 |  |  |  |
| O=C1C(=O)C2CCCCC2C1=O (stereo not shown) [3a,4,5,6,7,7a-Hexahydroindene-1,2,3-trione] | 2.1 and 2.0548 | 1.0 and 1.039 |  |  |  |
| CCC=CCCC(=O)O [4-Heptenoic acid] | 3.8 and 3.8427 | 1.9 and 1.9421 |  |  |  |
| O=C(O)CCCCCCCCC(O)CCCCC(=O)O (stereo not shown) [6-Hydroxypentadecanedioic acid] | 3.8 and 3.7968 | 1.9 and 1.9248 |  |  |  |
| NCCCCCCCC(=O)O [8-Aminooctanoic acid] | 0.6 and 0.6095 | -0.7 and -0.7143 |  |  |  |
| O=C(O)CCCC=C=CCO [8-Hydroxy-5,6-octadienoic acid] | 1.6 and 1.6327 | 0.7 and 0.7073 |  |  |  |
| CC(CCC1C(CO)=CC(=O)CC1(C)C)OC1O[C@H](CO)[C@@H](O)[C@H](O)[C@H]1O (stereo partly shown) [9,13-Dihydroxy-4-megastigmen-3-one 9-glucoside] | 1.6 and 1.6359 | 0.7 and 0.71 |  |  |  |
| CCCCCCCCC=CCCCCCCCCCCCC(N)=O [13-Docosenamide] | 1.6 and 1.5663 | 0.6 and 0.6473 |  |  |  |
| CCCCCC[C@@H]([C@@H](C)O)n1cnc2c(N)ncnc21 [(2R,3S)-3-(6-Amino-9H-purin-9-yl)nonan-2-ol] | 1.6 and 1.6266 | 0.7 and 0.7018 |  |  |  |
| C[C@@H](O)CCC[C@@H](O)CCO [(3R,7R)-1,3,7-Octanetriol] | 1.2 and 1.1718 | 0.2 and 0.2287 |  |  |  |
| CC(=O)/C=C/[C@@]1(O)C(C)(C)C[C@H](O)C[C@@]1(C)O [(3S,5R,6R,7E)-3,5,6-Trihydroxy-7-megastigmen-9-one] | 1.7 and 1.7032 | 0.8 and 0.7682 |  |  |  |
| C/C=C/CC/C=C/C=O [(E,E)-2,6-Octadienal] | 3.6 and 3.6317 | 1.9 and 1.8606 |  |  |  |

| Compound | Fold Change (CNT1 [1]) | log2(FC) (CNT1 [1]) | Fold Change (CNT1 [2]) | log2(FC) (CNT1 [2]) | change of level in Slc28a1-/- mouse urine (untargeted metabolomics) (CNT1 [2]; Slc28a1-/- vs Slc28a1+/+) |
| --- | --- | --- | --- | --- | --- |
| Nc1ncnc2c1ncn2[C@@H]1O[C@H](COP(=O)(O)O)[C@@H](O)[C@H]1O [Adenosine monophosphate] | 0.7 and 0.7016 | -0.5 and -0.5113 |  |  |  |
| C[C@]12C[C@H](O)[C@H]3[C@@H](CCC4=CC(=O)CC[C@@]43C)[C@@H]1CC[C@@H]2C(=O)CO [Corticosterone] |  | 0.6 and 0.6234 |  |  |  |
| O=C(O)[C@H]1CCCCN1 [D-Pipecolic acid] | 0.5 and 0.5213 | -0.9 and -0.9399 |  |  |  |
| CC(C)[C@H](NC(=O)[C@@H](NC(=O)[C@@H](N)CCCCN)C(C)C)C(=O)N[C@H](C(=O)O)[C@@H](C)O [Dynorphin B (10-13)] (H-KVVT-OH) | 1.5 and 1.5114 | 0.6 and 0.5958 |  |  |  |
| CC(C)C[C@H](NC(=O)[C@@H](N)CCC(=O)O)C(=O)N[C@@H](CCCN=C(N)N)C(=O)O [Glutamylleucylarginine] (H-Glu-Leu-Arg-OH) | 1.9 and 1.9151 | 0.9 and 0.9375 |  |  |  |
| CCCCCC(=O)OC(CC(=O)O)C[N+](C)(C)C.[Cl-] (stereo not shown) [Hexanoylcarnitine] | 0.7 and 0.6848 | -0.5 and -0.5463 |  |  |  |
| O=C(O)CNC(=O)c1ccccc1 [Hippuric acid] | 0.6 and 0.5802 | -0.8 and -0.7854 |  |  |  |
| O=C(O)C=Cc1c[nH]c2ccccc12 [Indoleacrylic acid] | 1.2 and 1.2118 | 0.3 and 0.2771 |  |  |  |
| C/C=C\C(=O)O [Isocrotonic acid] | 1.5 and 1.4875 | 0.6 and 0.5729 |  |  |  |
| CCCCC/C=C\C/C=C\C/C=C\CCCCC(=O)OC[C@@H](O)COP(=O)([O-])OCC[N+](C)(C)C [LysoPC(18:3(6Z,9Z,12Z)/0:0)] | 0.8 and 0.8475 | -0.2 and -0.2388 |  |  |  |
| CC/C=C\C/C=C\C/C=C\C/C=C\C/C=C\CCCC(=O)N[C@@H](CS)C(=O)O [N-Eicosapentaenoyl Cysteine] |  | 0.6 and 0.6176 |  |  |  |
| CCCCCCCCCCCCCCCC(=O)N[C@@H](CO)C(=O)O [N-Hexadecanoyl-serine] |  | -0.3 and -0.2983 |  |  |  |
| Cn1cccc1-c1cccnc1 [Nicotyrine] | 1.2 and 1.1873 | 0.2 and 0.2477 |  |  |  |
| CCCCCCCCOC(=O)c1cc(O)c(O)c(O)c1 [Octyl gallate] | 1.4 and 1.3585 | 0.4 and 0.442 |  |  |  |
| CC(C)(CO)[C@@H](O)C(=O)NCCC(=O)O [Pantothenic acid] | 1.5 and 1.4861 | 0.6 and 0.5715 |  |  |  |
| C[N+](C)(C)CC(CC(=O)[O-])OC(=O)CCCC=CC=CC=CCCCCC(=O)O (stereo not shown) [Pentadeca-5,7,9-trienedioylcarnitine] | 0.8 and 0.8004 | -0.3 and -0.3211 |  |  |  |
| O=C(O)CCCCCCCCC(=O)O [Sebacic acid] |  | 0.9 and 0.8894 |  |  |  |
| CC1C(=O)CC(CC(=O)O)C1(C)C (stereo not drawn) [alpha-Campholonic acid] | 1.9 and 1.8802 | 0.9 and 0.9109 |  |  |  |
| NCCCC[C@H](NC(=O)CNC(=O)[C@@H](N)CC(N)=O)C(=O)NCC(=O)O [asn-gly-lys-gly] (H-NGKG-OH) | 1.6 and 1.616 | 0.7 and 0.6924 |  |  |  |

| Compound | Fold Change (CNT1 [1]) | log2(FC) (CNT1 [1]) | Fold Change (CNT1 [2]) | log2(FC) (CNT1 [2]) | change of level in Slc28a1-/- mouse urine (untargeted metabolomics) (CNT1 [2]; Slc28a1-/- vs Slc28a1+/+) |
| --- | --- | --- | --- | --- | --- |
| CC(C)[C@H](NC(=O)[C@H](CS)NC(=O)CN)C(=O)N[C@@H](CCCCN)C(=O)O [gly-cys-val-lys] (H-GCVK-OH) |  |  | 0.3981 | -1.3288 |  |
| CCN(CC)CCn1c(-c2ccccc2)noc1=N [imolamine] | 1.7 and 1.718 | 0.8 and 0.7808 |  |  |  |
| CSCC[C@H](N)C(=O)N[C@@H](CCCCN)C(=O)N[C@@H](CCCCN)C(=O)O [met-lys-lys] (H-Met-Lys-Lys-OH) | 1.7 and 1.6535 | 0.7 and 0.7255 |  |  |  |
| CC(Cc1ccccc1)Nc1ncnc2c1ncn2[C@@H]1O[C@H](CO)[C@@H](O)[C@H]1O (stereo partly shown) [n6-phenylisopropyladenosine] |  |  | 2.3257 | 1.2176 |  |
| C[C@@H](O)[C@H](N)C(=O)N[C@H](C(=O)N[C@@H](CCCCN)C(=O)N[C@@H](CO)C(=O)O)[C@@H](C)O [thr-thr-lys-ser] (H-TTKS-OH) |  |  | 3.9891 | 1.9961 |  |
| O=c1ccn([C@@H]2O[C@H](CO)[C@@H](O)[C@H]2O)c(=O)[nH]1 [uridine] |  |  |  |  | no changes |
| CC1(O)C=CC(=O)CC1 (stereo not shown) [xi-4-Hydroxy-4-methyl-2-cyclohexen-1-one] |  |  | 0.705 | -0.5042 |  |
| O=C(O)CCCCCCCCC(O)CCCCCC(=O)O (stereo not shown) [xi-7-Hydroxyhexadecanedioic acid] | 4.0 and 4.0339 | 2.0 and 2.0122 |  |  |  |
| Butanedioic acid, octenyl- | 1.6 and 1.5663 | 0.6 and 0.6473 |  |  |  |
| Chitobiose |  |  | 1.446 | 0.532 |  |
| Dodecenoylcarnitine |  |  | 7.667 | 2.9387 |  |
| Oxidized glutathione | 0.7 and 0.6775 | -0.6 and -0.5617 |  |  |  |
| Prostaglandin F-main urinary metabolite |  |  | 3E+03 and 2991.4 | 11.5 and 11.547 |  |
| Rivularine |  |  |  | -4.2 and -4.2176 |  |
| Tetrahydroaldosterone |  |  | 871.11 | 9.7667 |  |
| hydroxycortisol |  |  | 377.01 | 8.5584 |  |
| hydroxyvalerylglycine |  |  | 1E-01 and 0.14 | -2.8 and -2.836 |  |
| trihydroxyflavone |  |  | 0.1272 | -2.9749 |  |
